Assay results published in paper PMC9186069.

Sequences of proteins named here, by UniProt entry; tags and fusion partners are left off. A change or cut given only in a name is not applied to a line headed by its entry.
UniProt P00736: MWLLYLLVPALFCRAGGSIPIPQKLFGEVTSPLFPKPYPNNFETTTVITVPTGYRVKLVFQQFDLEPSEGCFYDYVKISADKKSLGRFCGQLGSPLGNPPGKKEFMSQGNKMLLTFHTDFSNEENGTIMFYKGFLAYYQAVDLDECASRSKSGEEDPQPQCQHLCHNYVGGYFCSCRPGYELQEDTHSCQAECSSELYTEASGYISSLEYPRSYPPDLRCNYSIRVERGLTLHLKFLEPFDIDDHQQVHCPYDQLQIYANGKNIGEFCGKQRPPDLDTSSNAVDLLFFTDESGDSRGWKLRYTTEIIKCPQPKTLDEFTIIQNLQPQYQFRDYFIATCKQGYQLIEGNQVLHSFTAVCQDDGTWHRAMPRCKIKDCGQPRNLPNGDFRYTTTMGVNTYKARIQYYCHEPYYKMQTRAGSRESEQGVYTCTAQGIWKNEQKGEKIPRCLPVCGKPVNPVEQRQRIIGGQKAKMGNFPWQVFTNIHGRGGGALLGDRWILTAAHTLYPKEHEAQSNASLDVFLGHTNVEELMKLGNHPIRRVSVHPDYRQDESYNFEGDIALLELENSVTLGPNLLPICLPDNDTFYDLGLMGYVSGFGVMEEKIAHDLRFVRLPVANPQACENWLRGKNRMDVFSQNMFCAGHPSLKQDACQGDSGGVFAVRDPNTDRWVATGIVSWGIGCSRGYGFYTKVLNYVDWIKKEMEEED

Target: full-length B. miyamotoi FbpB (Borrelia miyamotoi strain FR64b)
Assay: far-Western, overlay or dot blot; B. burgdorferi B314 whole-cell lysates (2.5 x10^7 cell equivalents) resolved by SDS-PAGE, on PVDF; probed with 20 μg zymogen or active C1r for 1 hour; detected with goat anti-human C1r; only the binder purified

active C1r (from UniProt P00736) (enzyme)
binding: binds

Results are given in words; binding and its absence hold for the method and conditions named. A result given as binding can be weak or reduced; the word gives no strength.
